Test results: patent US20080254152A1, “Methods for Reducing the Effects of Stress on Skin Condition” (priority 2003, published 2008)
For at least one compound, name, drawing or mass did not settle the structure.

Legend:
[1] = test system: procollagen-1 expression in human neonatal dermal fibroblast cells; assay: Procollagen I C-peptide EIA in neonatal-derived human dermal fibroblasts after chronic dexamethasone and PMA; type: cell-based; conditions: agent added during dexamethasone pre-treatment
Experimental: (§1) In this study, to understand better the effect of chronic stress on dermal matrix remodelling in the skin, we have therefore measured changes in markers of dermal matrix degradation (MMP-1) and dermal matrix synthesis (Procollagen I) in chronically glucocorticoid-treated primary human dermal fibroblasts, following acute stress with PMA. The experimental approach is similar to that described in example 1 except that the cells tested are dermal fibroblasts and cells are assayed for expression of procollagen-1, MMP-1 and MMP-9 expression.
Primary human dermal fibroblast cells were cultured and passaged in DMEM (Gibco) supplemented with 10% FBS (foetal bovine serum). […]
Collagen I is synthesised as a precursor molecule, Procollagen I. The amount of free propeptide therefore, reflects stoichiometrically, the amount of collagen I synthesised. The Procollagen Type I C-peptide Enzyme Immunoassay (EIA) kit allows for the quantitative determination of Procollagen Type I C-peptide (PIP).
Eight PIP standards were prepared in sample diluent at concentrations ranging from 0 to 640 ng/ml. […] After this period, 100 μl stop solution was added to each well and absorbance measured at 450 nm with a plate reader.
A standard curve was plotted of mean absorbance versus PIP concentration and the line of best fit calculated by regression analysis. […]

[2] = test system: MMP-1 expression in human neonatal dermal fibroblast cells; assay: Active MMP-1 in neonatal-derived human dermal fibroblasts after chronic dexamethasone and PMA; type: cell-based; conditions: agent added during dexamethasone pre-treatment
Experimental: as §1
Primary human dermal fibroblast cells were cultured and passaged in DMEM (Gibco) supplemented with 10% FBS (foetal bovine serum). Cells were routinely plated out in 6-well tissue culture dishes, at a seeding density of ˜5000 cells/cm^2 in 2 ml complete medium/well for 24 hours, and incubated at 37° C. in 5% CO2. […]
Six MMP-1 and MMP-9 standards were prepared in calibrator diluent at concentrations ranging from 0.39 to 12.5 ng/ml and 0.25 to 16 ng/ml, respectively. […] The relative fluorescence unit (RFU) of each well was determined using a fluorescence plate set with 1×20 mS integration time, plate speed ˜6; excitation wavelength set to 320 nm and emission wavelength set to 405 nm.
A standard curve was plotted of mean RFU versus MMP-1 and MMP-9 concentration (respectively), and the line of best fit calculated by regression analysis. […]

[3] = test system: ICAM-1 expression in HUVECs; assay: ICAM-1 expression in HUVECs pre-treated 5 days with dexamethasone, then oxidatively stressed with PMA (ELISA); type: cell-based, Human; conditions: HUVEC; for Effective? (suppression of ICAM-1 synthesis in chronically stressed endothelial cells): then 1 μM PMA
Experimental: (§2) An in vitro model has been developed to investigate the impact of chronic stress on the inflammatory status of endothelial cells. • a. Cells are grown in 6-well (9.5 cm^2) plates. • b. […] Tissue culture supernatant and cell pellets are harvested at timepoint T0. • d. The cells are oxidatively stressed with 1 μM Phorbol Myristate Acetate (PMA). • e. Tissue culture supernatant and cell pellets were harvested at 6, 24 and 48 hours (T6, T24 and T48, respectively) post-PMA treatment. • f. All tissue culture supernatant was assayed for Lactate Dehydrogenase (LDH), as a measure of cytotoxicity, and Interleukin-6 synthesis. • g. All cells were counted (Beckman Coulter Counter) and pelleted and cell lysate assayed for ICAM-1 expression (Intra Cellular Adhesion Molecule 1).
HUVEC cells (Human umbilical vein endothelial cells, TCS Biologicals) were cultured and passaged in EGM-2 (Endothelial growth medium, Biowhittaker) supplemented with heparin, VEGF (vascular endothelial growth factor), gentamicin sulphate, ascorbic acid, HEGF (Human endothelial growth factor), hydrocortisone, HFGF-B (Human fibroblast growth factor B), R3-IGF-1 (long R insulin-like growth factor 1) and FBS (foetal bovine serum).
Cells were routinely plated out in 6-well tissue culture dishes, at a seeding density of ˜5000 cells/cm^2 in 2 ml complete medium/well, 48 hours before starting the experiment, and incubated at 37° C. in 5% CO2.
Pre-treatment and test solutions were prepared in EGM-2 containing all supplements except hydrocortisone.
Following this, the cells were oxidatively stressed for 24 hours with 1 μM PMA (Sigma P8139).
Receptor antagonists were added to the cells during the pre-treatment period. These included the Glucocorticoid Receptor Antagonist; 2 μM Mifepristone (Sigma M8046) and two CRH receptor antagonists; 200 nM Astressin (Sigma A4933) and 200 nM α-helical CRF peptide antagonist (Sigma C2917).
Any change in cell morphology was noted before the cells were harvested. Both the tissue culture supernatant and the endothelial cells were harvested after the five-day pre-treatment period (T0), at 6 hours and 24 hours after addition of PMA (T6 and T24) and at 24 hours after removal of the PMA (T48). All tissue culture supernatants were stored at −20° C.
All cell pellets were lysed on ice for 30 minutes in 1 ml cell lysis buffer per 2.5×10^6 cells. The lysis buffer contained 1% NP-40, 0.1% sodium deoxycholate, 0.1% SDS, 6 mM sodium chloride and 0.05M Tris at pH 7.6. Protease inhibitor cocktail ([…]; Sigma P8340) was added prior to use at a level of 10 μl per ml of lysis buffer. […]
The total protein concentration of each cell lysate was measured using the Pierce BCA protein assay kit. […] The plate was mixed, covered and incubated at 37° C. for 30 minutes and absorbance read at 562 nm. […]

[4] = test system: IL-6 expression by Human Umbilical Vein Endothelial Cells; assay: IL-6 ELISA of HUVEC tissue culture supernatant; type: cell-based; conditions: chronic GC treatment, following oxidative stress with PMA
Experimental: as §2

[5] = test system: MMP-9 expression in human neonatal dermal fibroblast cells; assay: Active MMP-9 in neonatal-derived human dermal fibroblasts after chronic dexamethasone and PMA; type: cell-based; conditions: chronically stressed neonatal dermal fibroblasts, PMA; FIG. 7

In the case of `CC1(COc2ccc(CC3SC(=O)NC3=O)cc2)CCCCC1` (centres unmarked) [Ciglitazone], the “Effect on glucocorticoid effects on levels of procollagen expression following PMA-induced acute stress” value [1] is reported as “inhibited the effects of glucocorticoid”, the “Effect on glucocorticoid effects on levels of MMP-1 expression following PMA-induced acute stress” value [2] is reported as “inhibited the effects of glucocorticoid” and the “Effective? (suppression of ICAM-1 synthesis in chronically stressed endothelial cells)” value (“Effective?” for short) ([3]; agent 10 μM during 5-day 1 μM dexamethasone pre-treatment) is reported as “Yes”.
For `COC1=C2C[C@@H](C)C[C@H](OC)[C@H](O)[C@@H](C)/C=C(\C)[C@H](OC(N)=O)[C@@H](OC)/C=C\C=C(/C)C(=O)NC(=CC1=O)C2=O` [Geldanamycin], the “Effective?” value ([3]; agent 0.1 μM during 5-day 1 μM dexamethasone pre-treatment) was “No” and the “Effective?” value ([3]; agent 1 μM during 5-day 1 μM dexamethasone pre-treatment) was “No”.
`C[C@@H]1C[C@H]2[C@@H]3CCC4=CC(=O)C=C[C@]4(C)[C@@]3(F)[C@@H](O)C[C@]2(C)[C@@]1(O)C(=O)CO` [Dexamethasone] was tested, and the “Change in interleukin-6 synthesis and secretion vs vehicle treated cells” value [4] was “increase”, the “Change in MMP-9 synthesis and secretion vs control, untreated cells” value [5] was “significant suppression and inhibition” and the “Effect of acute GC treatment on post oxidative stress-induction of ICAM-1 expression” value ([3]; 1 μM glucocorticoid added together with PMA after 5-day vehicle pre-treatment) was “effectively suppressed”.
